PubChem BioAssay AID1259254, NCATS | 2017

Purpose: 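Genome-wide screen for genes that prevent DNA re-replication in cancer cells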 (primary screen)
System: human HCT116 colorectal cancer cells
Knock-down reagent: single siRNA against human genes
Time to read-out: 3 days
Read-out: 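Nuclei stained with Hoechst and imaged; cell-cycle phase assigned by DNA content; G2 share scaled per plate, non-targeting siRNA 0%, GMNN siRNA 100%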
Scale: G2 robust z-score and G2 cells, % of GMNN control: higher = more G2 cells, more excess DNA replication
Rule for the call: 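An siRNA counts as active if its G2 robust z-score lies at least 5 MADs above the screen median; here such calls match roughly 38% of GMNN control or more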
The whole screen tested about 59,000 reagents; this is an unselected part. In the full data, about 1,550 (2.6%) were called active. 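G2 share is only a proxy for re-replication; each gene was hit by three separate siRNAs, and active genes were retested.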 A number with no mark means an inactive call. The numbers tell different reagents against one gene apart. Further read-outs or replicates are left out here. No sequences are given here. Not given: the amount of reagent.

POLDIP3 #1 → G2 robust z-score: -0.813; G2 cells, % of GMNN control: -2.75
POLDIP3 #2 → G2 robust z-score: -0.505; G2 cells, % of GMNN control: -0.588
POLDIP3 #3 → G2 robust z-score: 1.52; G2 cells, % of GMNN control: 13.7
KDM5A #1 → G2 robust z-score: 0.559; G2 cells, % of GMNN control: 6.9
KDM5A #2 → G2 robust z-score: 1.71; G2 cells, % of GMNN control: 15
KDM5A #3 → G2 robust z-score: -0.835; G2 cells, % of GMNN control: -2.91

An excerpt of the results above, for reference:
KDM5A #2 → G2 robust z-score: 1.71; G2 cells, % of GMNN control: 15
KDM5A #3 → G2 robust z-score: -0.835; G2 cells, % of GMNN control: -2.91

Further results follow.
BCO1 #1 → G2 robust z-score: -0.517; G2 cells, % of GMNN control: -0.673
BCO1 #2 → G2 robust z-score: -0.0334; G2 cells, % of GMNN control: 2.73
BCO1 #3 → G2 robust z-score: -0.737; G2 cells, % of GMNN control: -2.22
RTEL1 #1 → G2 robust z-score: 0.338; G2 cells, % of GMNN control: 5.34
RTEL1 #2 → G2 robust z-score: -0.867; G2 cells, % of GMNN control: -3.13
RTEL1 #3 → G2 robust z-score: -0.918; G2 cells, % of GMNN control: -3.49
ZNF479 #1 → G2 robust z-score: 1.09; G2 cells, % of GMNN control: 10.7
ZNF479 #2 → G2 robust z-score: 0.775; G2 cells, % of GMNN control: 8.42
ZNF479 #3 → G2 robust z-score: -0.517; G2 cells, % of GMNN control: -0.673
SPACA6 #1 → G2 robust z-score: -1.14; G2 cells, % of GMNN control: -5.04
SPACA6 #2 → G2 robust z-score: 1.95; G2 cells, % of GMNN control: 16.7
SPACA6 #3 → G2 robust z-score: -0.452; G2 cells, % of GMNN control: -0.214
